Here are results for 15 molecules from patent US20260258115A1.

Experiment [1] deals with RSV postfusion F (postF), subtype B (respiratory syncytial virus, subtype B). Put plainly: BLI, IgG. For orientation: Biolayer interferometry detects binding as a change in optical thickness at a sensor tip.
For experiment [2], the target named is RSV postfusion F (postF), subtype B (respiratory syncytial virus subtype B). Kind of experiment: BLI.

No constants are given. Whether binding was seen depends on the method and setting.

B1: ADI-21028 (antibody, V domains shown)
VH: EVQLVESGGALVKPGGSLRLSCVASGFTFSDYYMHWVRQAPGKGLEWVSYISSTSSFTNYADSVKGRFIISRDNAKNSLYLQLNSLRAEDTAVYYCARDESSGWQTRRHFGMDVWGQGTLVTVSS
VL: EIVMTQSPSTLSASVGDRVTITCRASQSLNTWLAWYQHKPGKAPKLLISTASSLQSGVPSRFSASGSGTEFTLTISSLQPDDFATYYCQQFRGTFGPGTKVEIK
Turning to B1, the binding entry in experiment [1] is on record as “no binding”.

B2: ADI-20984 (antibody, V domains shown)
VH: EVQLLETGAEVKKPGASVKVSCHVSGYGLTDLSMHWVRQAPGKRLQWMGSFDPQYGETIDTQNFQGRVTMTVDTSTATLYMQLSGLRSEDTAMYYCATPQSTGALDNWGQGTLVTVSS
VL: DIRVTQSPSSLSASVGDRVTITCRASQSISSYLSWYQQKPGKAPRLVIFAASNLQSGVPSRFSGTGSSRFSDSGSWTDFTLTISSLQPEDFAIYYCQQTYITPFTFGQGTKVDIK
In the case of B2, in experiment [1], the binding result was “no binding”.

B3: ADI-24829 (antibody, V domains shown)
VH: EVQLLESGGGLVKPGGSLRLSCAASGFTFSSYSMNWVRQAPGKGLEWVSSISSSSSYIYYADSVKGRFTISRDNAKNSLYLQMNSLRAEDTAVYYCARGFHYYGSGSHDAFDIWGQGTMVTVSS
VL: QPVLTQPPSVSGAPGQRVTISCTGSSSNIGAGYDVHWYQQLPGTAPKLLIYGNSNRPSGVPDRFSGSKSGTSASLAITGLQAEDEADYYCQSYDSSLSGVFGGGTKLTVL
B3: the binding entry in experiment [2] is reported as “no binding”.

B4: ADI-21049 (antibody, V domains shown)
VH: EVQLVESGGGLVKPGGSLRLSCSASGFAFSSYSMNWVRQAPGKGLEWVSSISASSSYIFYADSVKGRFTISRDNAKNSLYLQMNSLRAEDTAFYYCARALSPGYGDYRDYWGQGTLVTVSS
VL: QSVVTQPPSVSGAPGQRVTISCTGSSSNIGAGYDVHWYQQLPGAAPKLLIYGNNNRPSGVPDRFSGSKSGTSASLAITGLQAEDEADFYCQSYDHNLSVVFGGGTKLTVL
For B4, the binding entry in experiment [1] is “no binding”.

B5: ADI-24838 (antibody, V domains shown)
VH: EVQLLESGGGLVKPGGSLRLSCAASGFTFSSYSMNWVRQAPGKGLEWVSSISSSSSYIYYADSVKGRFTISRDNAKNSLYLQMNSLRAEDTAVYYCARQGVGTVTTWNYYYYYMDVWGKGTTVTVSS
VL: QSVVTQPPSVSGAPGQRVTISCTGSSSNIGAGYDVHWYQQLPGTAPKLLIYGNSNRPSGVPDRFSGSKSGTSASLAITGLQAEDEADYYCQSYDSSLSWVFGGGTKLTVL
For the molecule B5, the binding result in experiment [2] is “no binding”.

B6: ADI-20980 (antibody, V domains shown)
VH: QVQLQESGPGLVKPSQTLSLTCSVSGGSVSSGDYYWTWIRQPAGKGLEWIGRIYNSGGTDYSPSLKSRVTISVDTSKNQFSLKLSSVTAADTAVYYCARGRGYYESPWGQGTLVTVSS
VL: EIVLTQSPATLSLSPGERATLSCRASQSVGIYIGWYQQKPGQAPRLLMYDASNRATGIPDRFSGSGSGTDFSLTISSLEPEDFAVYYCQLRSKWLTFGPGTKVEIK
B6: the binding entry in experiment [1] is recorded as “no binding”.

B7: ADI-21005 (antibody, V domains shown)
VH: EVQLVESGGAVVQPGGSLRLSCVASGLAFDEYTMHWVRQSSAKGLEWISLISWNGGITYYADSVKGRFTISRDNSKNSLYLQMNSLRTEDTATYFCARLGYGSGSDYGDDYWGQGTLVTVSS
VL: ETTLTQSPGTLSLSPGERATLSCRASQSVSNNYLAWYQQKPGQAPRLLIHGASTRVTGIPARFSGSGSGTDFTLTISRLEPEDFAVYYCHQYHSSPRTFGQGTKVDIK
As for B7, the binding entry in experiment [1] is reported as “no binding”.

B8: ADI-19489 (antibody, V domains shown)
VH: QITLKESGPALVKPTQTLTLTCTFSGFSLSTSGMCVSWIRQPPGKALEWLARIDWDDDKYYSTSLKTRLTISKDTSKNQVVLTMTNMDPVDTATYYCARMCWGNYVPIDAFDIWGQGTMVTVSS
VL: DIQLTQSPSSLSASVGDRVTITCRASQGIRNDLGWYQQKPGKAPKRLIYAASSLQSGVPSRFSGSGSGTEFTLTISSLQPEDFATYYCLQHNSYPPTFGQGTKVDIK
Turning to B8, in experiment [2], the binding result is “no binding”.

B9: ADI-20987 (antibody, V domains shown)
VH: QVQLVQSGGGVVHPGRSLRLSCAASGFSFSDYGMHWVRQAPGKGLEWVAVIWYDGINKYYADSVKGRFAISRDNSKNTLYLQMNSLRAGDTAVYYCARGGIAAAQRYFDYWGQGTLVTVSS
VL: ETTLTQSPGTLSLSPGERATLSCRASQTVSSSNLAWYQQKPGQAPRLLIYGASSRATGIPDRFSGSGSGTDFTLTISRLEPEDFAVYYCQQSGTSFGQGTKVDIK
As to B9, in experiment [1], the binding entry is “no binding”.

B10: ADI-21013 (antibody, V domains shown)
VH: QVQLQESGPGVVKPSETLSLTCTVSGGSISNTHSYWGWIRQSPGKGLEWIGSIYYTGSTYYNPSFRSRVTLSVDTSKNQFSLKLSSVTAADTAVYYCAAPDYFVLTDYKSTFDYWGRGALVTVSS
VL: DIVMTQSPGTLSLSPGGRATLSCRASQSVGSSSLAWYQQKPGQAPRLLIYGASSRAAGIPDRFSGSGSGTDFTLTINRLEPEDFAMYYCQQYGSSPLTFGGGTKVEIK
As to B10, the binding entry in experiment [1] was “no binding”.

B11: ADI-24854 (antibody, V domains shown)
VH: EVQLVESGGGLVKPGGSLRLSCAASGFTFSSYSMNWVRQAPGKGLEWVSSISSSSSYIYYADSVKGRFTISRDNAKNSLYLQMNSLRAEDTAVYYCARDRRFGELFYFDYWGQGTLVTVSS
VL: QSVLTQPPSVSGAPGQRVTISCTGSSSNIGAGYDVHWYQQLPGTAPKLLIYGNSNRPSGVPDRFSGSKSGTSASLAITGLQAEDEADYYCQSYDSSLSGNWVFGGGTKLTVL
As to B11, in experiment [2], the binding result is listed as “no binding”.

B12: ADI-25505 (antibody, V domains shown)
VH: EVQLVESGGGLVKPGGSLRLSCAASGFTFSSYSMNWVRQAPGKGLEWVSSISSSSSYIYYADSVKGRFTISRDNAKNSLYLQMNSLRAEDTAVYYCARVVGYSGSYLDYWGQGTLVTVSS
VL: QSVVTQPPSVSGAPGQRVTISCTGSSSNIGAGYDVHWYQQLPGTAPKLLIYGNSNRPSGVPDRFSGSKSGTSASLAITGLQAEDEADYYCQSYDSSLSGVVFGGGTKLTVL
Turning to B12, in experiment [2], the binding entry was “no binding”.

B13: ADI-21018 (antibody, V domains shown)
VH: EVQLLESGGGLVKPGGSLRLSCAGSGFTLSSYGMNWVRQAPGQGLEWISSISSSSSYINYADSVKGRFTISRDNAQNSLYLQLNSLRAEDTAVYYCARGGLGYDYGLGSYTYADYWGQGTLVTVSS
VL: QSVVTQPPSVSGAPGQRVTISCTGSSSNTGAGYDIHWYQQLPGTGPKLLIYGNKNRPSGVPDRFSGSKSGTSASLAITGLQAEDEADYYCQSYDSSLSGWVFGGGTKVTVL
On to B13, for which, in experiment [1], the binding result is reported as “no binding”.

B14: ADI-21015 (antibody, V domains shown)
VH: QVQLVQSGAEVKKPGASVRVSCKVPGNTLSDLSMHWVRHTPGEGLEWMGSFDPEYGETIPAQRFQGRVTMTEDTSTDTAYMELTSLRFEDTAVYYCAAPHASGALQHWGQGTLVTVSS
VL: DIVMTQSPSSLSASVGDRVTITCRASQIISAYLNWYQQKAGKAPKLLIYAASSLQSGVPSRFSGSGSGTDFTLTISSLQPEDFATYYCQQTYITPFTFGQGTKLEIK
In the case of B14, the binding entry in experiment [1] is recorded as “no binding”.

B15: ADI-21036 (antibody, V domains shown)
VH: QVQLVQSGAEVKEPGKSLKISCKGSGNHFGNYWIAWVRQMPGKGLEWMGIIYPGDSDTRYSPSFQDQVTISVDKSINTVYLQWSSLKAADTATYYCAGSKLGNSWYTIYDSWGQGTLVTVSS
VL: NFMLTQPASVSGSPGQSITISCAGPSALIGVYNLVSWYQQVPGKAPKLIIYEGSKRPSGVSHRFSGSKSGYTASLTISGLQTEDEADYYCCSYAGSGTSVVFGGGTKVTVL
As to B15, in experiment [1], the binding result is “no binding”.
